{"sequences": {"note": "The chains behind the UniProt entries cited, without tags or fusion partners.", "UniProt O15527, whole entry": "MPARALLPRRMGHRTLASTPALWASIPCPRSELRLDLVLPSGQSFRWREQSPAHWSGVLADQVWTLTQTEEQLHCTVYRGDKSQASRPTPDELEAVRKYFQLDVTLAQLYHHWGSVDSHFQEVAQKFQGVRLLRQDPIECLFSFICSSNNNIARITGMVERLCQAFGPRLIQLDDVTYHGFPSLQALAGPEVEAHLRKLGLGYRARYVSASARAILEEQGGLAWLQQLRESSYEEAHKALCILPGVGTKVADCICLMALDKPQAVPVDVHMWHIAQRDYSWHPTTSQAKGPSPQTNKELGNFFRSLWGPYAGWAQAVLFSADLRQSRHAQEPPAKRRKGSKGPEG"}, "source": "paper doi:10.1101/2022.11.04.515179", "biological_target": "GST-OGG1 WT (human) (UniProt O15527)", "assay": "EMSA", "conditions": "0-160 nM protein; 8-oxoG at position 16 of strand 1; residues 1-345", "note": "Construct, isoform or probe ends are uncertain for at least one entry. At least one verdict was read from the data and is not stated in words by the source."}
{"sequence": "GGCTTCATCGTTGTCGCAGACCTGGTGGATACCG (double strand) [Cy5 34-mer 8-oxoG:C]", "values": [{"measurement": "binding result", "value": "binds"}]}
